From paper PMC9067936, “SHIP164 is a chorein motif lipid transfer protein that controls endosome–Golgi membrane traffic” (The Journal of Cell Biology, 2022)
Results are given in words; binding and its absence hold for the method and conditions named. For some assays here: Binding seen in cells or lysates may run through a third protein. Some results given as binding are weak or reduced against the parent protein; the word gives no strength.

The chains behind the UniProt entries cited, without tags or fusion partners. Residues count along the entry.
UniProt A0JNW5, residues 1312-1464: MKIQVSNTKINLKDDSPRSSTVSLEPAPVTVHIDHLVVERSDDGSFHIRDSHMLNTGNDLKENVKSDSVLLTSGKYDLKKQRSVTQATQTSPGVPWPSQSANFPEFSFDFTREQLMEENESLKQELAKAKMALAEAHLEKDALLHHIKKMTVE
UniProt P63167: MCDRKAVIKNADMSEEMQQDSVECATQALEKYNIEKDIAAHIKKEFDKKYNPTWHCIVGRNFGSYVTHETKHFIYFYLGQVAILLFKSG

How the values were obtained:
[1] = molecular target: MBP-SHIP164_(1312–1464) (human) (UniProt A0JNW5); test: SEC; eluate of the amylose resin run over a Superdex S200 column; fractions analysed by SDS-PAGE and Coomassie staining; both purified
[2] = molecular target: MBP-SHIP164_(1312–1464) (human) (UniProt A0JNW5); test: pull-down; both proteins co-expressed in E. coli from a polycistronic plasmid; lysate on amylose resin 1 h at 4°C, washed in 25 mM Tris pH 7.5, 200 mM NaCl, 1 mM BME, eluted with 10 mM maltose

- binding [1]: binds
- binding [2]: binds
Substance: untagged LC8 (DYNLL1) (from UniProt P63167 1-89)
